In PubChem BioAssay AID1508600 (Functional Genomics Laboratory (NCATS/FGL), 2020) one finds z-score data, which are given here for 107 sequences.

Screen size: about 53,000 sequences; about 3,700 (7%) were called active.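 Rule for the calls: active = gene knockdowns whose robust z-score for IL-1 alpha signal is at least 2 or at most -2, so actives lie on both sides; inactive = the rest.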 The list shows a part of the results.

The assay in a line: Components of the Cytosolic LPS Sensing Pathway: Gene Identification via Genome-wide siRNA Screen.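 Note: robust z of the log signal after scaling to non-targeting control siRNA wells of the plate.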 Conditions: RAW264.7 macrophages, IL-1a HTRF, actives lie on both sides, screened at 100 nM (by protocol), cells primed 5 h with Pam3CSK4 first. The procedure, abridged: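 IL-1a HTRF of supernatants after 24 hour LipidA transfection of Pam3CSK4-primed (5 hours) RAW264.7 cells, 48h post-siRNA transfection (100 nM). Scores: percent of plate negative-control median, then log-based robust z-score.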
(In general: TR-FRET usually uses a lanthanide donor and a delayed reading to cut background.)
For the sequence GCCUCUUAUUUGGUUACGATT against Best3, the z-score was inactive: 0.605.

As for GGCUAGUUGCCAUGAUGCATT against Spink1, the z-score is inactive: -1.22.

With GGAACUGAUCUGGAAGAAUTT against Sord, the z-score was inactive: -0.392.

Turning to GGUUGAGUUCCUGUAACUUTT against Mat1a, the z-score was inactive: -0.732.

Turning to GUUCUACAUCAAGACAUCCTT against Crabp1, the z-score was inactive: -1.27.

On to GGACGAUUCAAGGUAACAUTT against Esrrg, for which the z-score is inactive: -1.

Consider GCAACAUCACACAAGACCATT against Il13, for which the z-score is inactive: 0.731.

Consider GCUAGAGUAUGAGAACUUCTT against Cdc14b, for which the z-score is inactive: 0.233.

GGAAUGUUUGGUGCUAUGATT against Flvcr2: the z-score is active: 3.4.

In the case of GGACUUCUUGGACCUACUUTT against F5, the z-score was inactive: -1.55.

In the case of GCGAUCAGUACUGAAGGAATT against Siglecf, the z-score was inactive: -1.27.

On to CCUUCUGUUGCUUAUACAUTT against Tmem192, for which the z-score was inactive: 0.679.

Regarding GGAUCUGGUUGGCAAGCAUTT against Krt33a, the z-score was active: 2.87.

Consider GGAACAUUUCACCUUUUAGTT against Sptssa, for which the z-score was inactive: -1.35.

On to GGAGAUCUAUUCGGACACUTT against Inpp5a, for which the z-score was inactive: 1.52.

With GGACAAAGGUGUCAACUCCTT against Crmp1, the z-score was inactive: -1.99.

In the case of GGUUAUCAAGGACCAAAAATT against Ivl, the z-score was inactive: -0.555.

As to GCGGUAAGGAACUUAAUGATT against Fv1, the z-score was inactive: 0.189.

As to GCUCCAGAUGUCAAAUUAATT against Yipf4, the z-score was inactive: -0.23.

Consider GGAAUUCGUCAACAACAUGTT against Csn1s1, for which the z-score was inactive: 0.0379.

On to GGCUUUCUCGUUUUGAUAUTT against Nln, for which the z-score was inactive: 0.574.

Consider GGCCUUUAAACAGAUUGAATT against Zfp37, for which the z-score was inactive: -0.321.

As to GGAACCAAUCUUGGUCUCATT against Tln2, the z-score was inactive: -0.66.

As for CCAACGAUGCUGUCAGAAATT against Gys2, the z-score was inactive: 0.453.

GGAGGAAGAAAUGGUCUGGTT against Tsga8: the z-score is inactive: -0.524.

Regarding GCAUCAAAGGUCUGAGACUTT against Magix, the z-score is inactive: 0.649.

Take CCGUGAAUGUGAUAAUCCATT against Adamts8: the z-score is inactive: 0.417.

Consider CCUGAAUGGAAAGAAUUGGTT against Gm6288, for which the z-score is inactive: -0.61.

Take GGCCUUCAGUGACAAAGACTT against Dmrt3: the z-score was inactive: -1.18.

GCCGUUCCCAUUAUCGUUUTT against Tmem87a: the z-score was inactive: -0.693.

As for CCACUAAUCUUCUUCUACATT against Olfr1311, the z-score is active: -2.08.

In the case of “GGAAGGAAGCUAAAAUACCTT against A130023I24Rik”, the z-score was inactive: 1.51.

GGAACUUGGGUGAAUAAAUTT against Serpind1: the z-score was inactive: -0.554.

GCCUUAAUGCUUCAAGGUGTT against Hspd1: the z-score is inactive: 0.021.

On to “GUAUUUCUACUAUGUGGAUTT against C030006K11Rik”, for which the z-score is inactive: 0.484.

For the sequence GCAUGAACACUCUGACUGCTT against Faap100, the z-score was inactive: -1.72.

For GGUGCUGUGUGAGCUUUCATT against Zfp85os, the z-score was inactive: -1.47.

For CCUUAAUAAAUCUAGUGGCTT against Stmn3, the z-score was inactive: -0.567.

With GGUCAAGUGUAAGAUGUUUTT against Dcps, the z-score was inactive: -1.29.

Take GGUCAUUCUGUACAUACAUTT against Slc37a3: the z-score is inactive: -0.257.

For GGAAAUAUGAUCCAUCCUGTT against Zfp282, the z-score was inactive: 1.36.

Regarding CCAUGUUCAGAAGAGAAUATT against Igsf11, the z-score was inactive: -1.69.

Turning to GGACGAGAGCACCUGAAAUTT against Efhb, the z-score was inactive: -0.00509.

On to GCAAAUAGGGAGGUUCCUGTT against Ypel1, for which the z-score was inactive: 1.47.

With GGCUUAGUAUGUUGUAUUCTT against Fam241b, the z-score was inactive: 0.189.

Take GGAUUAUGAGAAUCAAACCTT against Serpina10: the z-score was inactive: -0.399.

Regarding GGAAAAUUGAUAGCAAGCUTT against Fbxw15, the z-score was inactive: 1.9.

In the case of CGGAAUGAACAUCAUGCUCTT against Pifo, the z-score is inactive: -1.07.

Turning to GCGACCAGGACCGCGUCAATT against Sox3, the z-score is inactive: -1.07.

As for GGUCUUCUAUGGGAUCAUGTT against Entpd6, the z-score was inactive: -0.402.

In the case of GGAAGAGUCUAAUUAAAGGTT against Rab27b, the z-score was inactive: 0.0195.

Consider GCUUGAUCAACAAGUGGAGTT against Nup62, for which the z-score is active: -2.13.

For the sequence “GGAGAAAGAAACUCUCAGATT against 2610301B20Rik”, the z-score was inactive: 0.0975.

As to GGAUGGUGAUAAAAACAACTT against Tnnc2, the z-score was inactive: 0.173.

As for GGAGAACUUUUUGAUAGAATT against Chek1, the z-score is inactive: -0.324.

Turning to GGAAACAUUAGAAUCUUGUTT against Lin52, the z-score was active: -2.23.

On to GGCAACCAUUAAAUGUUUATT against Trim59, for which the z-score was inactive: -0.54.

With CCUUGUCAUUGCACUCCAATT against Tm6sf2, the z-score was inactive: -1.03.

Take GCCAGAGACACGAUCCUCUTT against Ints12: the z-score was inactive: -1.82.

In the case of GGCGCAUUCAUGUAUCUUCTT against Olfr908, the z-score was inactive: 0.00978.

On to CCUACCUGGUAGCAAGAAATT against Gphn, for which the z-score is inactive: -1.45.

As to GCCCAUUGUAAUAAAAGCCTT against Dnali1, the z-score was inactive: -0.582.

Turning to CCCAGGUGAGGAUUGAUAATT against Rit2, the z-score was inactive: 0.667.

GGAGAAAAAUCCUACCGACTT against Zmym5: the z-score is inactive: 0.56.

For the sequence GGCCAAGAAGAAGAAGAGATT against Ttf1, the z-score was inactive: 0.053.

With GCAUGUCAUCCACAAAUACTT against Dpm2, the z-score is inactive: 0.024.

With GGCGGAAACUCAAGUUCUUTT against Mcoln3, the z-score was inactive: -0.46.

For GCUCAUUUGCACAACAUGCTT against Bcl11b, the z-score is inactive: -0.512.

As for GGCCAUAAACAACCAUUUATT against Ppp1r1b, the z-score was inactive: 0.747.

For the sequence GCGGAUAUGAAGGACAUGCTT against Gskip, the z-score is inactive: 0.0794.

Consider GGAUUUCUUAGCCAUGUUCTT against Lpxn, for which the z-score is inactive: -0.28.

For GCAAUAAGUCUCGGGAACATT against Gpr158, the z-score was inactive: -1.2.

Take “CCAAAAUUAAUGUGACAGATT against 2210408I21Rik”: the z-score was inactive: -0.619.

On to GAUUCUCCAUUGCCCAAUGTT against Lce1i, for which the z-score is inactive: 0.0132.

Consider CGUUGUGUAUAGGUCUUUATT against M6pr, for which the z-score was inactive: -0.622.

CCAAACAUAGAUGUUACUGTT against Ace2: the z-score is inactive: 1.35.

Take GGUCGACAGAAAAAACAUUTT against Lrrc4c: the z-score was inactive: 1.78.

Take GGAAUCACGAAGGAGAUUCTT against Rexo5: the z-score is inactive: -1.25.

Consider GGCCAUGGUGGCGUGUUAUTT against Egln2, for which the z-score was inactive: -0.524.

Take GCUUGGAUUGCCCUGAUUUTT against Olfr640: the z-score was inactive: -1.41.

On to GGGACUCGAAGCACUGUGUTT against Cinp, for which the z-score is inactive: -0.159.

Consider GCUGGCACAAUCUUUCAAATT against Cdh8, for which the z-score was inactive: 0.796.

On to CCAUGUCAGUAUCUCAUGUTT against Pdc, for which the z-score was inactive: -0.456.

GGCCAUUGGACACAGAAUCTT against Rpl35a: the z-score is active: 2.28.

With GCCAGAGACCCAAAUCAGATT against BC106179, the z-score is inactive: 0.328.

Regarding GCCGAUGUGUUAGUGGCUATT against Ddx28, the z-score is inactive: -0.609.

With GGCUAUUUAUUGCAUUCUCTT against Zfp689, the z-score was inactive: 0.388.

In the case of GCUUUGGCUCAAAGCACGUTT against Mcm3, the z-score was inactive: 1.93.

For GGGUCCUCUGCUCAUUUGGTT against Wdr17, the z-score is inactive: -0.334.

In the case of CCAAAUAACUUUGUUGGCATT against Srsf12, the z-score is inactive: -0.937.

On to CCCUAUAUAUCCACAUGUUTT against Mc3r, for which the z-score is inactive: -0.818.

For the sequence GCACCCACGAUUAUUGGAATT against Ppa1, the z-score was inactive: -0.0492.

As for GCUUAUACCUCCAUCAUCGTT against Cops8, the z-score is inactive: -0.936.

GGAAGGAAGAGAUGAAGAATT against Cetn1: the z-score was inactive: 1.09.

GGCUAACGAAGAAUAUCAATT against Tusc3: the z-score was inactive: 0.496.

Regarding GCACCACUAUUUUAGCAUATT against Rap1b, the z-score is inactive: -0.221.

For the sequence GGAAUGAGAGAACUUGAUATT against Trmt5, the z-score was inactive: -0.521.

With GGAAUCCUUGAGACAGAUUTT against Impg1, the z-score is inactive: 0.0308.

On to GAGUUUACCUAGUCUUUGATT against Qrich1, for which the z-score was inactive: 0.149.

For the sequence CCACAUUUGGAACCUACGATT against Lrrcc1, the z-score was inactive: -0.831.

For “GGAUGUAGGUGACUGUCGATT against 4932411K12”, the z-score is inactive: -0.824.

On to GCCACUAGCCUUUCAAAAGTT against Muc1, for which the z-score is inactive: 1.11.

In the case of CCGCUUUCUUGCCAUUCACTT against Olfr576, the z-score is inactive: -0.266.

Turning to CCUACAAACCAGAAGAGGUTT against Akr1c19, the z-score was inactive: 0.285.

Regarding GGCUUUUGUAACGAAAGGCTT against Wif1, the z-score is inactive: 0.273.

GGGAUUAUUCAGUCUAUGUTT against Lgals12: the z-score was inactive: 0.124.

GGAGGAAGAGGUCAUCUUCTT against Olfr1378: the z-score is inactive: -0.541.
